Reference: PubChem BioAssay AID1671195 (Yale University, 2021)
Purpose: 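Genes whose knockdown alters LDL uptake in liver cancer cells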 (primary screen). System: human Huh7 hepatoma cells. Reagents: siRNA pool against human genes, 18 nM. Duration: about 2 to 2.5 days of knockdown, then 8 h LDL uptake. Conditions: DiI-labelled LDL at 30 µg/ml for 8 h, in lipoprotein-deficient serum medium. Measurement: 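Per-cell DiI-LDL intensity by automated imaging; well means scaled to the plate median and given as a robust z-score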. Reading the numbers: robust z-score: higher = more LDL uptake after knockdown. Active means: 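a gene counts as active if at least two replicate z-scores exceed ±2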.
Shown is an unselected part of about 22,000 reagents tested. About 1,510 of all reagents (6.9%) count as active. 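Active includes knockdowns raising or lowering LDL uptake; positive z-scores mean more uptake, negative mean less.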 A number with no mark means an inactive call. The numbers tell different reagents against one gene apart.

ELL2 scored robust z-score, replicate 1 = -0.711; robust z-score, replicate 2 = -0.814; robust z-score, replicate 3 = -0.337.
CEP152 showed robust z-score, replicate 1 = 0.714; robust z-score, replicate 2 = 3.16; robust z-score, replicate 3 = 0.28.
Against ZFHX2 #1, the entry reads robust z-score, replicate 1 = 1.71; robust z-score, replicate 2 = 1.78; robust z-score, replicate 3 = 0.922.
Knock-down of ZFHX2 #2 resulted in: robust z-score, replicate 1 = 0.157; robust z-score, replicate 2 = 0.0429; robust z-score, replicate 3 = 0.0432.
After knock-down of TMEM229B the results were robust z-score, replicate 1 = -0.202; robust z-score, replicate 2 = 0.0284; robust z-score, replicate 3 = -0.302.
Against SETD5 the deposit lists robust z-score, replicate 1 = -0.971; robust z-score, replicate 2 = 0.253; robust z-score, replicate 3 = -1.64.
With knock-down of PRMT9, the screen gave robust z-score, replicate 1 = -0.361; robust z-score, replicate 2 = -0.443; robust z-score, replicate 3 = -0.0278.
With knock-down of GCN1, the screen gave robust z-score, replicate 1 = 0.0313; robust z-score, replicate 2 = 0.767; robust z-score, replicate 3 = 0.802.
BAZ2B scored robust z-score, replicate 1 = -1.79; robust z-score, replicate 2 = -2.13; robust z-score, replicate 3 = -1.74.

In a second layout: 2 of the entries above
Gene	pool no.	robust z-score, replicate 1	robust z-score, replicate 2	robust z-score, replicate 3
SETD5	1	-0.971	0.253	-1.64
PRMT9	1	-0.361	-0.443	-0.0278

Continued:
Against RPRD1B, the values are robust z-score, replicate 1 = -0.0331; robust z-score, replicate 2 = -0.16; robust z-score, replicate 3 = 0.185.
For WDHD1 the deposit lists robust z-score, replicate 1 = 0.0154; robust z-score, replicate 2 = -0.443; robust z-score, replicate 3 = -0.841.
Against RASSF7, the entry reads robust z-score, replicate 1 = -0.908; robust z-score, replicate 2 = -0.92; robust z-score, replicate 3 = -0.483.
ZDHHC8BP gave robust z-score, replicate 1 = 0.779; robust z-score, replicate 2 = 1.19; robust z-score, replicate 3 = -0.0693.
Depletion of SLC17A4 came out at: robust z-score, replicate 1 = -0.906; robust z-score, replicate 2 = -0.936; robust z-score, replicate 3 = -1.16.
After knock-down of DDIT4L, the record shows robust z-score, replicate 1 = 0.124; robust z-score, replicate 2 = -0.738; robust z-score, replicate 3 = -0.793.
CTU2 scored robust z-score, replicate 1 = -0.238; robust z-score, replicate 2 = -1.05; robust z-score, replicate 3 = -1.
